Experimental data from the supplement of paper PMC7661543.
± gives the standard deviation of the averaged measurements. The effect of the compound repeats well; differences between the knockouts mostly do not.

Test system: BT-20
Experiment: relative cell number vs DMSO control (72 h) (% of DMSO); higher = less growth inhibition (more cells)
Experimental: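 QMAP-Seq: a pool of 5 breast cancer cell lines (ZR-75-1, SKBR3, HCC-38, MDA-MB-231, BT-20), each carrying 12 doxycycline-inducible Cas9 sgRNA perturbations (11 knockouts plus non-targeting sgNT), was treated with compounds for 72 h at four 10-fold doses (10 nM-10 uM or 1 nM-1 uM range). Barcodes were amplified and sequenced, and cell number was interpolated from 293T spike-in standard curves. The result is expressed as % of the median of DMSO wells. Two biological replicates.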

CS(=O)(=O)N1CCN(Cc2cc3nc(-c4cccc5[nH]ncc45)nc(N4CCOCC4)c3s2)CC1 [GDC0941]
Conditions | relative cell number
sgRNA knockout: sgATF3, 10 nM | 96 ± 3.2
sgRNA knockout: sgATF3, 100 nM | 83.6 ± 2.2
sgRNA knockout: sgATF3, 1000 nM | 58.6 ± 11
sgRNA knockout: sgATF3, 10000 nM | 45 ± 5.3
sgRNA knockout: sgATF4, 10 nM | 109 ± 9.9
sgRNA knockout: sgATF4, 100 nM | 94.9 ± 5.9
sgRNA knockout: sgATF4, 1000 nM | 86.7 ± 16
sgRNA knockout: sgATF4, 10000 nM | 49.4 ± 1.7
sgRNA knockout: sgATF6, 10 nM | 98.4 ± 5.4
sgRNA knockout: sgATF6, 100 nM | 69.8 ± 3.5
sgRNA knockout: sgATF6, 1000 nM | 72.5 ± 25
sgRNA knockout: sgATF6, 10000 nM | 48.1 ± 0.97
sgRNA knockout: sgATG7, 10 nM | 91.7 ± 9.3
sgRNA knockout: sgATG7, 100 nM | 86.2 ± 16
sgRNA knockout: sgATG7, 1000 nM | 72.8 ± 24
sgRNA knockout: sgATG7, 10000 nM | 54.4 ± 3.1
sgRNA knockout: sgERN1, 10 nM | 97.4 ± 20
sgRNA knockout: sgERN1, 100 nM | 86.9 ± 12
sgRNA knockout: sgERN1, 1000 nM | 64.4 ± 8.6
sgRNA knockout: sgERN1, 10000 nM | 39 ± 13
sgRNA knockout: sgHSF1, 10 nM | 91.6 ± 0.69
sgRNA knockout: sgHSF1, 100 nM | 103 ± 24
sgRNA knockout: sgHSF1, 1000 nM | 65.1 ± 12
sgRNA knockout: sgHSF1, 10000 nM | 41.9 ± 4.6
sgRNA knockout: sgHSF2, 10 nM | 91.2 ± 6.4
sgRNA knockout: sgHSF2, 100 nM | 75 ± 6.5
sgRNA knockout: sgHSF2, 1000 nM | 67.9 ± 17
sgRNA knockout: sgHSF2, 10000 nM | 40.7 ± 8.4
sgRNA knockout: sgKEAP1, 10 nM | 95.88 ± 0.89
sgRNA knockout: sgKEAP1, 100 nM | 94 ± 13
sgRNA knockout: sgKEAP1, 1000 nM | 67 ± 2
sgRNA knockout: sgKEAP1, 10000 nM | 42.7 ± 5.8
sgRNA knockout: sgNFE2L2, 10 nM | 99.5 ± 7.5
sgRNA knockout: sgNFE2L2, 100 nM | 75.1 ± 26
sgRNA knockout: sgNFE2L2, 1000 nM | 75.2 ± 16
sgRNA knockout: sgNFE2L2, 10000 nM | 45 ± 20
sgRNA knockout: sgSLC35F2, 10 nM | 100.4 ± 0.17
sgRNA knockout: sgSLC35F2, 100 nM | 81.8 ± 12
sgRNA knockout: sgSLC35F2, 1000 nM | 78.7 ± 1.7
sgRNA knockout: sgSLC35F2, 10000 nM | 52.3 ± 13
sgRNA knockout: sgXBP1, 10 nM | 96.4 ± 8.2
sgRNA knockout: sgXBP1, 100 nM | 91.9 ± 19
sgRNA knockout: sgXBP1, 1000 nM | 72.4 ± 4.6
sgRNA knockout: sgXBP1, 10000 nM | 47.9 ± 3.6

OCc1ccc(-c2ccc(-c3ccc(CO)s3)o2)s1
Conditions | relative cell number
sgRNA knockout: sgATF3, 10 nM | 114 ± 31
sgRNA knockout: sgATF3, 100 nM | 68 ± 11
sgRNA knockout: sgATF3, 1000 nM | 22.6 ± 2.1
sgRNA knockout: sgATF3, 10000 nM | 9.04 ± 3.1
sgRNA knockout: sgATF4, 10 nM | 121 ± 46
sgRNA knockout: sgATF4, 100 nM | 77.6 ± 6
sgRNA knockout: sgATF4, 1000 nM | 24.5 ± 7
sgRNA knockout: sgATF4, 10000 nM | 8.07 ± 2.5
sgRNA knockout: sgATF6, 10 nM | 113 ± 17
sgRNA knockout: sgATF6, 100 nM | 67.043 ± 0.012
sgRNA knockout: sgATF6, 1000 nM | 25.8 ± 1.5
sgRNA knockout: sgATF6, 10000 nM | 7.25 ± 1.1
sgRNA knockout: sgATG7, 10 nM | 116 ± 18
sgRNA knockout: sgATG7, 100 nM | 77.6 ± 7.5
sgRNA knockout: sgATG7, 1000 nM | 24.9 ± 5.9
sgRNA knockout: sgATG7, 10000 nM | 8.55 ± 0.35
sgRNA knockout: sgERN1, 10 nM | 95.2 ± 20
sgRNA knockout: sgERN1, 100 nM | 63 ± 8.7
sgRNA knockout: sgERN1, 1000 nM | 22.8 ± 1.5
sgRNA knockout: sgERN1, 10000 nM | 8.23 ± 1
sgRNA knockout: sgHSF1, 10 nM | 89.9 ± 22
sgRNA knockout: sgHSF1, 100 nM | 67 ± 7.1
sgRNA knockout: sgHSF1, 1000 nM | 21.7 ± 3.8
sgRNA knockout: sgHSF1, 10000 nM | 7.74 ± 0.24
sgRNA knockout: sgHSF2, 10 nM | 114 ± 19
sgRNA knockout: sgHSF2, 100 nM | 73.2 ± 14
sgRNA knockout: sgHSF2, 1000 nM | 19.7 ± 5.3
sgRNA knockout: sgHSF2, 10000 nM | 6.52 ± 4.4
sgRNA knockout: sgKEAP1, 10 nM | 95 ± 5.7
sgRNA knockout: sgKEAP1, 100 nM | 62.9 ± 2.6
sgRNA knockout: sgKEAP1, 1000 nM | 21.2 ± 6.1
sgRNA knockout: sgKEAP1, 10000 nM | 6.81 ± 3.4
sgRNA knockout: sgNFE2L2, 10 nM | 135 ± 18
sgRNA knockout: sgNFE2L2, 100 nM | 94.1 ± 1.1
sgRNA knockout: sgNFE2L2, 1000 nM | 25.2 ± 4.8
sgRNA knockout: sgNFE2L2, 10000 nM | 12.1 ± 9.2
sgRNA knockout: sgSLC35F2, 10 nM | 109 ± 14
sgRNA knockout: sgSLC35F2, 100 nM | 74.2 ± 13
sgRNA knockout: sgSLC35F2, 1000 nM | 24 ± 1.7
sgRNA knockout: sgSLC35F2, 10000 nM | 7.55 ± 2
sgRNA knockout: sgXBP1, 10 nM | 110 ± 19
sgRNA knockout: sgXBP1, 100 nM | 74.6 ± 7.6
sgRNA knockout: sgXBP1, 1000 nM | 26 ± 2.4
sgRNA knockout: sgXBP1, 10000 nM | 10.1 ± 1.9

Cc1[nH]c(/C=C2\C(=O)Nc3ccc(S(=O)(=O)N(C)c4cccc(Cl)c4)cc32)c(C)c1C(=O)N1CCN(C)CC1
Conditions | relative cell number
sgRNA knockout: sgATF3, 10 nM | 94.9 ± 18
sgRNA knockout: sgATF3, 100 nM | 92.5 ± 11
sgRNA knockout: sgATF3, 1000 nM | 86.7 ± 7.5
sgRNA knockout: sgATF3, 10000 nM | 66.5 ± 7.8
sgRNA knockout: sgATF4, 10 nM | 100.1 ± 0.89
sgRNA knockout: sgATF4, 100 nM | 117 ± 9.3
sgRNA knockout: sgATF4, 1000 nM | 86.9 ± 8.7
sgRNA knockout: sgATF4, 10000 nM | 62.9 ± 20
sgRNA knockout: sgATF6, 10 nM | 104 ± 2.8
sgRNA knockout: sgATF6, 100 nM | 79.2 ± 4.7
sgRNA knockout: sgATF6, 1000 nM | 72.7 ± 8.4
sgRNA knockout: sgATF6, 10000 nM | 56.8 ± 2.1
sgRNA knockout: sgATG7, 10 nM | 87.8 ± 7.4
sgRNA knockout: sgATG7, 100 nM | 97.6 ± 11
sgRNA knockout: sgATG7, 1000 nM | 76.3 ± 10
sgRNA knockout: sgATG7, 10000 nM | 51.8 ± 10
sgRNA knockout: sgERN1, 10 nM | 105 ± 6.2
sgRNA knockout: sgERN1, 100 nM | 94 ± 2.3
sgRNA knockout: sgERN1, 1000 nM | 95.2 ± 13
sgRNA knockout: sgERN1, 10000 nM | 69.3 ± 17
sgRNA knockout: sgHSF1, 10 nM | 83.7 ± 6.2
sgRNA knockout: sgHSF1, 100 nM | 99 ± 5.4
sgRNA knockout: sgHSF1, 1000 nM | 82.2 ± 9.9
sgRNA knockout: sgHSF1, 10000 nM | 61.9 ± 12
sgRNA knockout: sgHSF2, 10 nM | 104 ± 8
sgRNA knockout: sgHSF2, 100 nM | 97.4 ± 15
sgRNA knockout: sgHSF2, 1000 nM | 80.1 ± 12
sgRNA knockout: sgHSF2, 10000 nM | 66.6 ± 12
sgRNA knockout: sgKEAP1, 10 nM | 114 ± 8.3
sgRNA knockout: sgKEAP1, 100 nM | 100 ± 10
sgRNA knockout: sgKEAP1, 1000 nM | 89.11 ± 0.26
sgRNA knockout: sgKEAP1, 10000 nM | 58.5 ± 2.2
sgRNA knockout: sgNFE2L2, 10 nM | 93.1 ± 13
sgRNA knockout: sgNFE2L2, 100 nM | 87.5 ± 2.8
sgRNA knockout: sgNFE2L2, 1000 nM | 89.6 ± 10
sgRNA knockout: sgNFE2L2, 10000 nM | 66.6 ± 14
sgRNA knockout: sgSLC35F2, 10 nM | 94.5 ± 4.1
sgRNA knockout: sgSLC35F2, 100 nM | 101 ± 3.8
sgRNA knockout: sgSLC35F2, 1000 nM | 91.8 ± 3
sgRNA knockout: sgSLC35F2, 10000 nM | 61.9 ± 10
sgRNA knockout: sgXBP1, 10 nM | 113.7 ± 0.37
sgRNA knockout: sgXBP1, 100 nM | 100 ± 7.6
sgRNA knockout: sgXBP1, 1000 nM | 84.8 ± 2.9
sgRNA knockout: sgXBP1, 10000 nM | 68.5 ± 14
